Values from PubChem BioAssay AID1259405 (NCATS, 2018)

- Assay: 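Silenced genes that increase secreted GFP made by CHO cells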 (primary screen)
- Cell system: Chinese hamster CHO-K1 ovary cells with stable secreted eGFP expression
- Reagent: single siRNA against mouse genes, 0.8 pmol siRNA per well (2 µl of 400 nM stock)
- Timing: 3 days
- Measurement: 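Percent of the per-plate non-targeting control median for intracellular GFP per well by laser scanning cytometry and for cell viability by ATP luminescence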
- Scale: GFP, % of control: higher = more GFP per well, higher productivity; viability (ATP), % of control: higher = more viable cells (more ATP)
- Hit rule: 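a knock-down is called active if GFP reaches 120% or more of non-targeting control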
Here is a random part of about 50,000 deposited reagents. In the full data, about 4,000 (8%) were called active. 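Mouse siRNA library applied to hamster cells; one well for each siRNA.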 The numbers tell different reagents against one gene apart. No sequences are given here.

Against Dctn2 (GeneID 69654) #1 the deposit lists GFP, % of control 88.1; viability (ATP), % of control 61.8; inactive.
For Dctn2 (GeneID 69654) #2 the deposit lists GFP, % of control 85.1; viability (ATP), % of control 97.4; inactive.
Knock-down of Dctn2 (GeneID 69654) #3 came out at: GFP, % of control 30.1; viability (ATP), % of control 94.4; inactive.
For Slc34a2 (GeneID 20531) #1, the values are GFP, % of control 84.5; viability (ATP), % of control 113; inactive.
Knock-down of Slc34a2 (GeneID 20531) #2 came out at: GFP, % of control 74; viability (ATP), % of control 77.7; inactive.
With knock-down of Slc34a2 (GeneID 20531) #3 the results were GFP, % of control 84.6; viability (ATP), % of control 60.5; inactive.
Silencing of Zfp677 (GeneID 210503) #1 came out at: GFP, % of control 87.5; viability (ATP), % of control 95.7; inactive.
Against Zfp677 (GeneID 210503) #2, the entry reads GFP, % of control 45.5; viability (ATP), % of control 49.2; inactive.
For Zfp677 (GeneID 210503) #3 the deposit lists GFP, % of control 120; viability (ATP), % of control 120; inactive.

Reprinted from the entries so far, 2 entries:
Slc34a2 (GeneID 20531) #3 — GFP, % of control: 84.6; viability (ATP), % of control: 60.5; call: inactive
Zfp677 (GeneID 210503) #1 — GFP, % of control: 87.5; viability (ATP), % of control: 95.7; call: inactive

The results go on.
Knock-down of Mfsd6 (GeneID 98682) #1 came out at: GFP, % of control 117; viability (ATP), % of control 82.1; inactive.
Knock-down of Mfsd6 (GeneID 98682) #2 resulted in: GFP, % of control 70.1; viability (ATP), % of control 52.2; inactive.
Mfsd6 (GeneID 98682) #3 scored GFP, % of control 71.4; viability (ATP), % of control 81.4; inactive.
With knock-down of Npffr2 (GeneID 104443) #1, the record shows GFP, % of control 45.9; viability (ATP), % of control 42; inactive.
For Npffr2 (GeneID 104443) #2 the deposit lists GFP, % of control 94.3; viability (ATP), % of control 99.8; inactive.
Npffr2 (GeneID 104443) #3 scored GFP, % of control 48.7; viability (ATP), % of control 70.2; inactive.
Silencing of Ndufb11b (GeneID 66346) #1 gave: GFP, % of control 67.8; viability (ATP), % of control 74.2; inactive.
Depletion of Ndufb11b (GeneID 66346) #2 resulted in: GFP, % of control 80.7; viability (ATP), % of control 73.3; inactive.
After knock-down of Ndufb11b (GeneID 66346) #3 the results were GFP, % of control 49.5; viability (ATP), % of control 82.8; inactive.
